The list shows a part of the results.
What was measured:
Assay in all cases: log2 fold change, soluble protein after heating vs DMSO (PISA); higher = thermal stabilisation; K562 cells, 10 uM, 30 min; active = over 0.2 and 3.5 SD of the protein, either way, in both replicates (recomputed)
[1] = compound: CC1=C(C=C(C=C1)NC(=O)C2=CC(=CC=C2)C(C)(C)C#N)NC3=CC4=C(C=C3)N=CN(C4=O)C
Procedure, shortened: (§1)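 Soluble protein was defined as the supernatant after 21,000xg for 90 min. It came from K562 cells at 2×10^6 cells/mL given 10 μM compound for 30 min, heated in aliquots for 3 min across 48°C-58°C, pooled, and extracted in PBS with 0.5% NP-40 at 4°C, and was quantified by TMTpro 16plex LC-MS/MS with equalised channel sums. Thermal stability against control samples, from duplicates, is reported as log2 fold change.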

Sequences of proteins named here, by UniProt entry; tags and fusion partners are left off. A change or cut given only in a name is not applied to a line headed by its entry.
UniProt O95169, whole entry, looked up: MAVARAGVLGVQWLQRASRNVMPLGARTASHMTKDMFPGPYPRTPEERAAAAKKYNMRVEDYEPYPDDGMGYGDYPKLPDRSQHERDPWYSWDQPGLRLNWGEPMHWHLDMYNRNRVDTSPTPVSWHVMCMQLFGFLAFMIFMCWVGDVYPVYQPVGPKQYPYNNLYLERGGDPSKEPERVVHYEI
UniProt Q4G0T1: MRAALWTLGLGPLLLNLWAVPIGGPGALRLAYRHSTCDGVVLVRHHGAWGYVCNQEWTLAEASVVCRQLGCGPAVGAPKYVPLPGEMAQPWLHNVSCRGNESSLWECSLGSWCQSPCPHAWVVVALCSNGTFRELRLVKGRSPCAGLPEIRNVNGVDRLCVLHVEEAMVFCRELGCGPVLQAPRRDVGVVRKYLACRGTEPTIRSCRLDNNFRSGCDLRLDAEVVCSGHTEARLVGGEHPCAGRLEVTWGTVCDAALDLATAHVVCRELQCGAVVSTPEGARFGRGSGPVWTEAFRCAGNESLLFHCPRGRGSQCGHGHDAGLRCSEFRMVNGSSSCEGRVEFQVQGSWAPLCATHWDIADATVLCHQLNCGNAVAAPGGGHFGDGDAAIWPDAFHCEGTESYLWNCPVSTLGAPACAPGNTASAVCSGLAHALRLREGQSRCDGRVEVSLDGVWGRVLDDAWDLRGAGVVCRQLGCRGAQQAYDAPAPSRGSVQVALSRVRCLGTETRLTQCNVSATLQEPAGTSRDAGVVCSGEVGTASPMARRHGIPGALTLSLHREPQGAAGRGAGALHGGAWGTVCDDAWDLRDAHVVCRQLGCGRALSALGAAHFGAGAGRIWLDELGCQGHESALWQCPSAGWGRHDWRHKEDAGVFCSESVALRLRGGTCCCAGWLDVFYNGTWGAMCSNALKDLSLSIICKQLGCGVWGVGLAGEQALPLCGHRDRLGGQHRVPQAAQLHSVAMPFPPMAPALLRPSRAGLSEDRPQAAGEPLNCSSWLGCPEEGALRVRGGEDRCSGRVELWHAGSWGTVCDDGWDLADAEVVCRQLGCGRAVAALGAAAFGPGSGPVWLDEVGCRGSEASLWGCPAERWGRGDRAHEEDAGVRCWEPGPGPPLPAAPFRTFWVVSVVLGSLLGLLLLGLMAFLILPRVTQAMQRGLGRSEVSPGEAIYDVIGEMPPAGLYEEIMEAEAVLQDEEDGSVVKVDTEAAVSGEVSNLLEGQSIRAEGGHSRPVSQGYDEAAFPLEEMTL
UniProt Q9BT67: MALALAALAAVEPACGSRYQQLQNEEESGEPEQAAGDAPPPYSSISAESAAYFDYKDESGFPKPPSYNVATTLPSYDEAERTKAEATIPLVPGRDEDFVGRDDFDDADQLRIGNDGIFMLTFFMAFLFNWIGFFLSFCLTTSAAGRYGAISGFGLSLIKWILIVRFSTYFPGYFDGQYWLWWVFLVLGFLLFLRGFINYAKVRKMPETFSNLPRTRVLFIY
UniProt Q9BSU3: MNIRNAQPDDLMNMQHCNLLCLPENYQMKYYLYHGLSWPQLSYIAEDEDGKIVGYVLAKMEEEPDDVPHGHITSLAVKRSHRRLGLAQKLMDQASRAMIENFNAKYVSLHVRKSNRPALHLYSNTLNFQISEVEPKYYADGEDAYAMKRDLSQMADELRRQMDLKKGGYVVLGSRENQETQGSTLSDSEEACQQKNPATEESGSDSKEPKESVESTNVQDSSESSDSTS
UniProt Q92692, whole entry, looked up: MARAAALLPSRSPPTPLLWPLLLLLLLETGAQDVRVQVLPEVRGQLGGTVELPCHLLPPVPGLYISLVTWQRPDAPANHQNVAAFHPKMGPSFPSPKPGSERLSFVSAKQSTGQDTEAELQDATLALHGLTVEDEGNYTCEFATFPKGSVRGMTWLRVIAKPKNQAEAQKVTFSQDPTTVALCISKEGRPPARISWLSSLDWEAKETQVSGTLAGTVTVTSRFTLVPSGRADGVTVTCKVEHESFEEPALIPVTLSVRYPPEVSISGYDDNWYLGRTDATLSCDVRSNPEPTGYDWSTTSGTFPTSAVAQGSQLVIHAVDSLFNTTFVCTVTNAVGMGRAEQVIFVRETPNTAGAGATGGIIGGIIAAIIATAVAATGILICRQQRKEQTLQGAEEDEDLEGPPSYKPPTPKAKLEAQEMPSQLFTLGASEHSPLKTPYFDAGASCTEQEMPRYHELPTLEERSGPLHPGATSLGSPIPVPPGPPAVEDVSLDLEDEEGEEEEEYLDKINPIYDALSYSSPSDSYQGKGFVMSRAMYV
UniProt Q8WUY8: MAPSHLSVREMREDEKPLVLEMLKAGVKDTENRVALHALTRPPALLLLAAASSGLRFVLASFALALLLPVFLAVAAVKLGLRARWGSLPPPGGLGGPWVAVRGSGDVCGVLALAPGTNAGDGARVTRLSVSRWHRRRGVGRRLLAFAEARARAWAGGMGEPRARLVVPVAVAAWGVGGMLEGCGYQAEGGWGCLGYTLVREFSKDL
UniProt Q15003, whole entry, looked up: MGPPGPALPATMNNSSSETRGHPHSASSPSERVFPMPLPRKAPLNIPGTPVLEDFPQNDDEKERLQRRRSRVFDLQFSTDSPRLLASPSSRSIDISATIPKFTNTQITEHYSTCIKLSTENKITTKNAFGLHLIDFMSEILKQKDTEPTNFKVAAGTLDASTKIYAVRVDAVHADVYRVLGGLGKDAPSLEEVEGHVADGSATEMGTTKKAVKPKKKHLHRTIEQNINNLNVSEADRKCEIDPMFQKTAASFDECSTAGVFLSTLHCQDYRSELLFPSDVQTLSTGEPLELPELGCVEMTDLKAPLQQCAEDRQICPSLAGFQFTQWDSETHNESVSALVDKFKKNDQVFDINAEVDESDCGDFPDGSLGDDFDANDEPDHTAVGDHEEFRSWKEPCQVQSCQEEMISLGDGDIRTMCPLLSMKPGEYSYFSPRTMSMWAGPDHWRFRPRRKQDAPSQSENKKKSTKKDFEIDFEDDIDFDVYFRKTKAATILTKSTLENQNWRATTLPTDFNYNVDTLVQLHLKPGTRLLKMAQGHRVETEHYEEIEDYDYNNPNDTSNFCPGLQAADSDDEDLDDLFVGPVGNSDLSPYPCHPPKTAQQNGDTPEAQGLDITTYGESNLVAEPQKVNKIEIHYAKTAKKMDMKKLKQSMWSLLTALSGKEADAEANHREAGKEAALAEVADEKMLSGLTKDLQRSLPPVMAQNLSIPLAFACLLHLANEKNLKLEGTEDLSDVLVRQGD
UniProt Q9UI09, whole entry, looked up: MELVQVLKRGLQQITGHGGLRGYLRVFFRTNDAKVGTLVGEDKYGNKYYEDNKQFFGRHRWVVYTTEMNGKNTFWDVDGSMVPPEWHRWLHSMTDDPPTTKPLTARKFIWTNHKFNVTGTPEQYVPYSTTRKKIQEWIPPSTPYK

[2] = compound: CC1=C(C=C(C=C1)NC(=O)C2=CC(=CC=C2)N(C)C)NC(=O)C3=CC=C(C=C3)O
Procedure, shortened: as §1

[3] = compound: CC1=CC=C(C=C1)SC2=C3C=C(SC3=CN=C2)C(=O)N
Procedure, shortened: as §1

[4] = compound: CC1=NC(=CC=C1)C2=C(N=C(N2)C(C)(C)C)C3=CC4=NC=CN=C4C=C3
Procedure, shortened: as §1

Nexturastat A = compound: CCCCN(Cc1ccc(C(=O)NO)cc1)C(=O)Nc1ccccc1 [Nexturastat A]
Procedure, shortened: as §1

vemurafenib = compound: CCCS(=O)(=O)Nc1ccc(F)c(C(=O)c2c[nH]c3ncc(-c4ccc(Cl)cc4)cc23)c1F [vemurafenib]
Procedure, shortened: as §1

[5] = compound: CCCS(=O)(=O)Nc1ccc(F)c(C(=O)c2c[nH]c3ncc(Cl)cc23)c1F
Procedure, shortened: as §1

[6] = compound: CCCc1cc(C)[nH]c(=O)c1CNC(=O)c1cc(-c2ccnc(N3CCN(C)CC3)c2)cc2c1cnn2C(C)C
Procedure, shortened: as §1

givinostat = compound: CCN(CC)Cc1ccc2cc(COC(=O)Nc3ccc(C(=O)NO)cc3)ccc2c1 [givinostat]
Procedure, shortened: as §1

barasertib = compound: CCN(CCCOc1ccc2c(Nc3cc(CC(=O)Nc4cccc(F)c4)[nH]n3)ncnc2c1)CCOP(=O)(O)O [barasertib]
Procedure, shortened: as §1

[7] = compound: CC[C@@H]1C(=O)N(C)c2cnc(Nc3ccc(C(=O)NC4CCN(C)CC4)cc3OC)nc2N1C1CCCC1
Procedure, shortened: as §1

volasertib = compound: CC[C@@H]1C(=O)N(C)c2cnc(Nc3ccc(C(=O)N[C@H]4CC[C@H](N5CCN(CC6CC6)CC5)CC4)cc3OC)nc2N1C(C)C [volasertib]
Procedure, shortened: as §1

[8] = compound: CC[C@H](C)N1C=C(C2=C(C=C(C=C21)C3=CN=C(C=C3)N4CCNCC4)C(=O)NCC5=C(C=C(NC5=O)C)C)C
Procedure, shortened: as §1

epoxomicin = compound: CC[C@H](C)[C@@H](C(=O)N[C@@H]([C@@H](C)O)C(=O)N[C@@H](CC(C)C)C(=O)[C@]1(CO1)C)NC(=O)[C@H]([C@@H](C)CC)N(C)C(=O)C [epoxomicin]
Procedure, shortened: as §1

[9] = compound: CCn1cc(-c2ccnc3[nH]c(-c4cccc(CN(C)C)c4)cc23)c(-c2ccc(NC(=O)N(C)C)cc2)n1
Procedure, shortened: as §1

[10] = compound: CN(C)CC(=O)Nc1ccc2[nH]c(=O)c3ccccc3c2c1
Procedure, shortened: as §1

[11] = compound: CN1C2=C(C3=C1C(=O)N(N=C3)CC4=CC(=CC=C4)N)SC(=C2)S(=O)C
Procedure, shortened: as §1

[12] = compound: CN1CCC(CNc2ccc3ncc(-c4cccc(OC(F)(F)F)c4)n3n2)CC1
Procedure, shortened: as §1

[13] = compound: CCn1c(C(=O)N(C2CC2)C2CC2)cc2c3c(ncn3C)c(Nc3cc(C)n(C)n3)nc21
Procedure, shortened: as §1

rosiglitazone = compound: CN(CCOC1=CC=C(C=C1)C[C@H]2C(=O)NC(=O)S2)C3=CC=CC=N3 (racemic) [rosiglitazone]
Procedure, shortened: as §1

Target: NDUFB8 (UniProt O95169)
- log2 fold change [1]: inactive: 0.01
- log2 fold change [2]: inactive: -0.068
- log2 fold change [3]: inactive: 0.023
- log2 fold change [4]: inactive: 0.024
- log2 fold change (Nexturastat A): inactive: 0.045
- log2 fold change (vemurafenib): inactive: 0.099
- log2 fold change [5]: inactive: -0.04
- log2 fold change [6]: inactive: -0.025
- log2 fold change (givinostat): inactive: -0.048
- log2 fold change (barasertib): inactive: 0.023
- log2 fold change [7]: inactive: 0.008
- log2 fold change (volasertib): inactive: -0.016
- log2 fold change [8]: inactive: -0.036
- log2 fold change (epoxomicin): inactive: 0.074
- log2 fold change [9]: inactive: 0.055
- log2 fold change [10]: inactive: 0.016
- log2 fold change [11]: inactive: 0
- log2 fold change [12]: inactive: 0.097

Target: NA isoform 3 (UniProt Q4G0T1)
- log2 fold change [1]: inactive: -0.007
- log2 fold change [2]: inactive: 0.035
- log2 fold change [3]: inactive: 0.008
- log2 fold change [4]: inactive: -0.057
- log2 fold change (vemurafenib): inactive: 0.005
- log2 fold change [5]: inactive: -0.077
- log2 fold change [6]: inactive: -0.012
- log2 fold change (givinostat): inactive: -0.009
- log2 fold change (barasertib): inactive: 0.179
- log2 fold change (volasertib): inactive: -0.051
- log2 fold change [8]: inactive: 0.026
- log2 fold change [10]: inactive: -0.019
- log2 fold change [11]: inactive: -0.008

Target: NACA4P (UniProt Q9BZK3)
- log2 fold change [1]: inactive: 0.029
- log2 fold change [2]: inactive: 0
- log2 fold change [4]: inactive: 0.091
- log2 fold change (Nexturastat A): inactive: 0.011
- log2 fold change (vemurafenib): inactive: 0.047
- log2 fold change [6]: inactive: 0.059
- log2 fold change (givinostat): inactive: 0.241
- log2 fold change (barasertib): inactive: 0.032
- log2 fold change [7]: inactive: 0.023
- log2 fold change [8]: inactive: -0.011
- log2 fold change (epoxomicin): inactive: 0.017
- log2 fold change [13]: inactive: -0.235
- log2 fold change [10]: inactive: 0.029
- log2 fold change (rosiglitazone): inactive: 0.026
- log2 fold change [11]: inactive: 0.025

Target: NDFIP1 (UniProt Q9BT67)
- log2 fold change [1]: inactive: -0.366
- log2 fold change [2]: inactive: -0.125
- log2 fold change [4]: inactive: -0.1
- log2 fold change (Nexturastat A): inactive: 0.048
- log2 fold change (vemurafenib): inactive: 0.268
- log2 fold change [6]: inactive: -0.15
- log2 fold change (givinostat): inactive: -0.046
- log2 fold change (barasertib): inactive: -0.011
- log2 fold change [7]: inactive: 0.211
- log2 fold change [8]: inactive: -0.2
- log2 fold change (epoxomicin): inactive: 0.102
- log2 fold change [9]: inactive: 0.224
- log2 fold change [10]: inactive: 0.152
- log2 fold change [11]: inactive: 0.175
- log2 fold change [12]: inactive: -0.062

Target: NAA11 (UniProt Q9BSU3)
- log2 fold change [1]: inactive: -0.375
- log2 fold change [2]: inactive: 0.006
- log2 fold change [3]: inactive: 0.06
- log2 fold change [4]: inactive: 0.021
- log2 fold change (Nexturastat A): inactive: -0.016
- log2 fold change (vemurafenib): inactive: 0.145
- log2 fold change [5]: inactive: -0.067
- log2 fold change [6]: inactive: 0.047
- log2 fold change (givinostat): inactive: 0
- log2 fold change (barasertib): inactive: -0.027
- log2 fold change [7]: inactive: -0.013
- log2 fold change (volasertib): inactive: -0.041
- log2 fold change [8]: inactive: 0.044
- log2 fold change (epoxomicin): inactive: 0.063
- log2 fold change [10]: inactive: -0.114
- log2 fold change [11]: inactive: 0.001

Target: NECTIN2 isoform 2 (UniProt Q92692)
- log2 fold change [1]: inactive: -0.037
- log2 fold change [2]: inactive: 0.011
- log2 fold change [4]: inactive: -0.104
- log2 fold change (Nexturastat A): inactive: 0.17
- log2 fold change (vemurafenib): inactive: 0.033
- log2 fold change [6]: inactive: -0.028
- log2 fold change (givinostat): inactive: 0.054
- log2 fold change (barasertib): inactive: 0.005
- log2 fold change [7]: inactive: 0.175
- log2 fold change [8]: inactive: 0.106
- log2 fold change (epoxomicin): inactive: -0.132
- log2 fold change [9]: inactive: -0.104
- log2 fold change [10]: inactive: -0.063
- log2 fold change [11]: inactive: -0.146
- log2 fold change [12]: inactive: 0.318

Target: NAT14 (UniProt Q8WUY8)
- log2 fold change [1]: inactive: 0.012
- log2 fold change [2]: inactive: -0.054
- log2 fold change [3]: inactive: 0.011
- log2 fold change [4]: inactive: 0.031
- log2 fold change (Nexturastat A): inactive: 0.227
- log2 fold change (vemurafenib): inactive: 0.054
- log2 fold change [5]: inactive: -0.051
- log2 fold change [6]: inactive: -0.103
- log2 fold change (givinostat): inactive: -0.043
- log2 fold change (barasertib): inactive: 0.027
- log2 fold change [7]: inactive: -0.192
- log2 fold change (volasertib): inactive: -0.261
- log2 fold change [8]: inactive: 0.063
- log2 fold change (epoxomicin): inactive: -0.024
- log2 fold change [10]: inactive: 0.077
- log2 fold change [11]: inactive: -0.107

Target: NCAPH (UniProt Q15003)
- log2 fold change [1]: inactive: 0.02
- log2 fold change [2]: inactive: -0.091
- log2 fold change [3]: inactive: 0.013
- log2 fold change [4]: inactive: 0.012
- log2 fold change (Nexturastat A): inactive: 0.09
- log2 fold change (vemurafenib): inactive: 0.068
- log2 fold change [5]: inactive: 0.065
- log2 fold change [6]: inactive: 0.067
- log2 fold change (givinostat): inactive: 0.238
- log2 fold change (barasertib): inactive: 0.042
- log2 fold change [7]: inactive: -0.126
- log2 fold change (volasertib): active: -0.353
- log2 fold change [8]: inactive: 0.051
- log2 fold change (epoxomicin): inactive: 0.011
- log2 fold change [9]: inactive: 0.052
- log2 fold change [10]: inactive: 0.043
- log2 fold change [11]: inactive: -0.021
- log2 fold change [12]: inactive: -0.116

Target: NDUFA12 (UniProt Q9UI09)
- log2 fold change [1]: inactive: 0.022
- log2 fold change [2]: inactive: -0.1
- log2 fold change [3]: inactive: 0.014
- log2 fold change [4]: inactive: -0.028
- log2 fold change (Nexturastat A): inactive: -0.027
- log2 fold change (vemurafenib): inactive: 0.039
- log2 fold change [5]: inactive: 0.03
- log2 fold change [6]: inactive: -0.044
- log2 fold change (givinostat): inactive: 0.114
- log2 fold change (barasertib): inactive: 0.056
- log2 fold change [7]: inactive: -0.135
- log2 fold change (volasertib): inactive: -0.244
- log2 fold change [8]: inactive: 0.081
- log2 fold change (epoxomicin): inactive: 0.046
- log2 fold change [9]: inactive: -0.173
- log2 fold change [10]: inactive: 0.119
- log2 fold change [11]: inactive: -0.054
- log2 fold change [12]: active: -0.632

Reference: the supplement of paper PMC10849652
